The values below come from patent US20130064788A1 (ELEVEN BIOTHERAPEUTICS, published 2013).

Amino acid sequences for entries named in this document (tags omitted). A change or cut given only in a name is not applied to a line headed by its entry.
UniProt Q96F46: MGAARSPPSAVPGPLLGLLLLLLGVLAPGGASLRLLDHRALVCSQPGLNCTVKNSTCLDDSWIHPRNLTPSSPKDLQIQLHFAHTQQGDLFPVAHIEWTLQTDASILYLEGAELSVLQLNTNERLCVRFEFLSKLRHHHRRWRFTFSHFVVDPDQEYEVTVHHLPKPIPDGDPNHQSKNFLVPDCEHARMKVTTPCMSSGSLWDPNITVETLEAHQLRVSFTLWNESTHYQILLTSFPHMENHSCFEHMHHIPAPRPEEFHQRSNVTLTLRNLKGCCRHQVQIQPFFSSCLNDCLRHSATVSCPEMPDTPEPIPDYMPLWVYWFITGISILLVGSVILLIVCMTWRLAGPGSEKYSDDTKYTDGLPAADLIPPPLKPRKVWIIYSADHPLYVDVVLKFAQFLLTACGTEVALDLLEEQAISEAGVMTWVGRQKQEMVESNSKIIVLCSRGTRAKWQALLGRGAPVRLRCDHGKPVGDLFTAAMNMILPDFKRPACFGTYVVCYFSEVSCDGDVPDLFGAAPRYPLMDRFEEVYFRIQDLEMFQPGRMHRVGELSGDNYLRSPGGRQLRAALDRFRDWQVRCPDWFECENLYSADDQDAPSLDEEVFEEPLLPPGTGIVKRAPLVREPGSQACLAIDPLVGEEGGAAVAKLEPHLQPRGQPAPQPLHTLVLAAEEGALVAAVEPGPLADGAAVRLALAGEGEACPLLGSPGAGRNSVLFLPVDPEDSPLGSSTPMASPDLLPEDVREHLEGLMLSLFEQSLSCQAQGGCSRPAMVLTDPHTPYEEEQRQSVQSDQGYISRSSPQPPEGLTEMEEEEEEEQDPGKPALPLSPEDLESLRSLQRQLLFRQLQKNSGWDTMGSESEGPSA

In assay [1] the target is T1, pre-assembled IL-17RB-IL-25 complex (IL-25 captured by immobilised IL-17RB) (human) (UniProt Q9NRM6).
T1 sequence (chain, C-terminal biotin on BirA tag) 1: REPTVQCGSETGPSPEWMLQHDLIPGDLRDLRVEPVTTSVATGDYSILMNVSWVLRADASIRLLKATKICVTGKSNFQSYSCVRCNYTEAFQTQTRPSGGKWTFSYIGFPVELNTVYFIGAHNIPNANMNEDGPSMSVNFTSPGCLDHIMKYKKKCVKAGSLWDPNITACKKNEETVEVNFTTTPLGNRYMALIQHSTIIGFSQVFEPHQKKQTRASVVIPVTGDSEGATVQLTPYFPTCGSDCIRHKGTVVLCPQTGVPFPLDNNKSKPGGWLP
T1 sequence (chain, C-terminal biotin on BirA tag) 2: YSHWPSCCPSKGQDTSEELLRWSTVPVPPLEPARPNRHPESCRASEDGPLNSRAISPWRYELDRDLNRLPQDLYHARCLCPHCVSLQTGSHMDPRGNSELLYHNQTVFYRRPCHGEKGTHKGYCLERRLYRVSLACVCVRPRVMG
As to the kind of experiment: SPR. On the technique in general: SPR reads the build-up and loss of mass on a sensor chip optically.

Assay [2] has as its target T2, IL-17RB extracellular domain (human) (UniProt Q9NRM6).
T2 sequence: T1 sequence (chain, C-terminal biotin on BirA tag) 1
As to the kind of experiment: SPR; cytokine captured by immobilised receptor.

The target in assay [3] is T3, pre-assembled IL-17RC-IL-17F complex (IL-17F captured by immobilised IL-17RC) (human) (UniProt Q8NAC3).
T3 sequence (chain, C-terminal biotin on BirA tag) 1: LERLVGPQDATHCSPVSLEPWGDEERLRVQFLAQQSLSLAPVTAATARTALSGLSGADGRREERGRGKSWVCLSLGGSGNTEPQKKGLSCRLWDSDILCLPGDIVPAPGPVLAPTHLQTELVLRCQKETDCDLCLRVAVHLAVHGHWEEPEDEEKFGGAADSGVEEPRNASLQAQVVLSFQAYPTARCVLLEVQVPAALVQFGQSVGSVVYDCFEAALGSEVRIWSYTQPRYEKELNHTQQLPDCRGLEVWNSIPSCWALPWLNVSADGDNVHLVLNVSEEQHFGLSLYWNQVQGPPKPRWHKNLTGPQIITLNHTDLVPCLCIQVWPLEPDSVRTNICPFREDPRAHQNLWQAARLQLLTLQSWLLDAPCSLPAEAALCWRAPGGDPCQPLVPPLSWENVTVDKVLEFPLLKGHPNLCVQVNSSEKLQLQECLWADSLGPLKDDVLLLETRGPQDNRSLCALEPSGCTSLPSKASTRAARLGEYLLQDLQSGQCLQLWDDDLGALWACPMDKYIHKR
T3 sequence (chain, C-terminal biotin on BirA tag) 2: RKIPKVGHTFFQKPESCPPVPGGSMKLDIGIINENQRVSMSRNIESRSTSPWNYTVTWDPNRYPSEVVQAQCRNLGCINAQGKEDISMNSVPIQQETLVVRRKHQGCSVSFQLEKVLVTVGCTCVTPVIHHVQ
As to the kind of experiment: SPR (Biacore T100), equilibrium analysis; IL-17F captured on immobilised biotinylated IL-17RC, soluble IL-17RC injected as second receptor.

In assay [4] the target is T3, pre-assembled IL-17RC-IL-17F complex (IL-17F captured by immobilised IL-17RC) (human). As to the kind of experiment: SPR; second receptor injected over IL-17F captured by immobilised IL-17RC.

These are yes or no findings as the source states them, for the method shown. Some binding calls cover weakened binding; strength is not graded here.

With “human IL-17RA extracellular domain (ECD) (from UniProt Q96F46 32-317) (receptor)”, in assay [1], the binding entry is recorded as “binds”.

B1: IL-25 (IL-17E) (ligand)
chain: T1 sequence (chain, C-terminal biotin on BirA tag) 2
notes: Expressed by High Five cells with a C-terminal hexa-His tag; It is treated as a dimeric cytokine in the SPR scheme; not shown: C-terminal hexa-His tag
As for B1, the binding entry in assay [2] is reported as “binds”.

B2: IL-17RC extracellular domain (receptor)
chain: T3 sequence (chain, C-terminal biotin on BirA tag) 1
notes: Expressed in 293S GnTI- cells with and without a C-terminal BirA tag; An additional C-terminal Fc tag was cleaved by 3C protease
As for B2, the binding entry in assay [3] and in assay [4] was “binds” each time.
